Source: paper PMC7949032

Experiments:
DDX43 KH-126 [1] = assay: EMSA; settings: up to 9.6 uM protein; EMSA: 40 mM Tris pH 8.0, 0.5 mM MgCl2, 15 mM NaCl, 0.01% NP-40, 0.1 mM DTT, 1 mg/ml BSA, no ATP, ice 30 min (Fig 2A legend: RT); recombinant protein; protein details: His (pET28a); label: 5'-32P
DDX43 KH-74 = target: T1, DDX43 KH-74 (UniProt Q9NXZ2); assay: EMSA; settings: EMSA: 40 mM Tris pH 8.0, 0.5 mM MgCl2, 15 mM NaCl, 0.01% NP-40, 0.1 mM DTT, 1 mg/ml BSA, no ATP, ice 30 min (Fig 2A legend: RT); recombinant protein; protein details: His (pET28a); label: 5'-32P
T1 sequence (looked up, limits assumed): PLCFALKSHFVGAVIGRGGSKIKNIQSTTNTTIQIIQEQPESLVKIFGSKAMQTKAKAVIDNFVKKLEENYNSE

DDX43 KH-89 = target: T2, DDX43 KH-89 (UniProt Q9NXZ2); assay: EMSA; settings: EMSA: 40 mM Tris pH 8.0, 0.5 mM MgCl2, 15 mM NaCl, 0.01% NP-40, 0.1 mM DTT, 1 mg/ml BSA, no ATP, ice 30 min (Fig 2A legend: RT); recombinant protein; residues 54-142; label: 5'-32P
T2 sequence (looked up): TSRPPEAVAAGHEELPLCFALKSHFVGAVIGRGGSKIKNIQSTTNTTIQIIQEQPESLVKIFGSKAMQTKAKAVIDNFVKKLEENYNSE

DDX43 KH-126 [2] = assay: filter binding; settings: Kd not determined, weak binding; filter binding: 25 mM Tris pH 7.5, 25 mM KOAc, 1 mM Mg(OAc)2, 1 mM DTT, 0.1 mg/ml BSA, 37 C; recombinant protein; protein details: His (pET28a); label: 5'-32P

GAGCUACCAGCUACCCCGUAUGUCAGAGAG / CUCUCUGACAUACGGGGUAGCUGGUAGCUC [blunt-end dsRNA 30 bp]
binding result (DDX43 KH-126 [1]): no binding
binding result (DDX43 KH-74): no binding
binding result (DDX43 KH-89): no binding
binding result (DDX43 KH-126 [2]): binds more weakly

For some of these results: Negatives hold for the conditions tested. For some of these results: At least one verdict rests on a figure or table, not on a statement of the authors. For some of these results: Tags and fusion partners may be left off the protein sequences shown. For some of these results: The exact form of at least one protein or probe is not confirmed. For some of these results: A weaker result is weaker than the reference pair of the same experiment.
